Experimental data from patent US10870102B2, “Radical generating catalyst, method for producing radical, method for producing oxidation reaction product, drug, and drug for agriculture and livestock” (ACENET INC., priority 2015, dated 2020).

Tested on: Escherichia coli MV1184
Assay: MIC/MBC determination, microplate
Type: cell-based
Details: MV1184, 24 h

## CC(C)(C)CC(C)(C)c1ccc(OCCOCC[N+](C)(C)Cc2ccccc2)cc1 [Comp. Ex. 8, benzethonium chloride]
  MIC: 17.5 µg/mL
